# Experimental data published in paper PMC8987051.
# Protein sequences, listed by entry. Tags and fused reporters are not part of them. Residues count along the entry.
# UniProt P05121, residues 24-402: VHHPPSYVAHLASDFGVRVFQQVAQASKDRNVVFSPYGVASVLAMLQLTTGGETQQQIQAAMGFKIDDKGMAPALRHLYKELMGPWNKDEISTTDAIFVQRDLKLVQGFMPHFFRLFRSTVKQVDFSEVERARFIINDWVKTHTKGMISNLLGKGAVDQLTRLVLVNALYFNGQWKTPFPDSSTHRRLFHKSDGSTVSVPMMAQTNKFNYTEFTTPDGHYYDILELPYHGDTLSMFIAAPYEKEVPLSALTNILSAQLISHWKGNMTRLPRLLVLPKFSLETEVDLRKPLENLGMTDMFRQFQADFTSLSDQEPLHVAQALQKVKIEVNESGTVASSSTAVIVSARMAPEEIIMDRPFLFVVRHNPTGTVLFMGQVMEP
# UniProt P45974: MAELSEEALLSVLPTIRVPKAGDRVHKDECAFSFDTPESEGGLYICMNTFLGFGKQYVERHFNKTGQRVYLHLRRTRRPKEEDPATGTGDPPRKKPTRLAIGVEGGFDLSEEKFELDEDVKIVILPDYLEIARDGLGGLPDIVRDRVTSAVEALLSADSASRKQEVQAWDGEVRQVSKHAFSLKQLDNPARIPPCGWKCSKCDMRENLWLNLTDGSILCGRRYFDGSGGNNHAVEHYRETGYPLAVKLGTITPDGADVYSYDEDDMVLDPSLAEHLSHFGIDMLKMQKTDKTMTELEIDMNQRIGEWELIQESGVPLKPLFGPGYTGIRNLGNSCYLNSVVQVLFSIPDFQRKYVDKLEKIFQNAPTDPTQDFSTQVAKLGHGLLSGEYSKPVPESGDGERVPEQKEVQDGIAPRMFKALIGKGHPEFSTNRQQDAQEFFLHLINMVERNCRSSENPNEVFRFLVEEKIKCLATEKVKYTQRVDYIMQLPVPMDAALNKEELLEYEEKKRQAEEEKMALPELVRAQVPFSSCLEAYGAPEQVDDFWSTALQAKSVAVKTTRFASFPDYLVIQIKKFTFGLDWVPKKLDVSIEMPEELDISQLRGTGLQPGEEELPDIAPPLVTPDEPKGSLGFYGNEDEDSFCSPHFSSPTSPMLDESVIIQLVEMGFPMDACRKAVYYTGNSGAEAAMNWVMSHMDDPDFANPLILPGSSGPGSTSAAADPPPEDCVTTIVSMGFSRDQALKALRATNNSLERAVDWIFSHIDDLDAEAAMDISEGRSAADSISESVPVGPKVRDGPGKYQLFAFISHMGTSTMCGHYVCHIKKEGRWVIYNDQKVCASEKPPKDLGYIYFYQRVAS
# Results are given in words; binding and its absence hold for the method and conditions named. In cells and extracts the contact can be indirect. Some results given as binding are weak or reduced against the parent protein; the word gives no strength.
# Molecular target: Plasminogen Activator Inhibitor-1 (PAI1) (human (endogenous in LUAD cell lines)) (UniProt P05121)
# Assay: co-IP; total protein from cells incubated with anti-PAI1 antibody or control anti-IgG overnight at 4 °C, then Protein A/G overnight at 4 °C; washed with PBS; SDS-PAGE; cell line not stated
substance,measurement,value
ubiquitin specific peptidase 5 (USP5) (from UniProt P45974 1-858) (enzyme),binding,binds
